The other results are listed elsewhere or left out.
Tests used:
Test in all cases: log2 fold change, soluble protein after heating vs DMSO (PISA); higher = thermal stabilisation; K562 cells, 10 uM, 30 min; active = over 0.2 and 3.5 SD of the protein, either way, in both replicates (recomputed)
[1] = compound: CS(=O)(=O)c1ccc(-c2cnc(N)c(C(=O)Nc3ccccc3)n2)cc1
How it was run: (§1)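 Values are thermal stability changes relative to control samples and are taken from duplicates. They are stated as log2 fold changes. Before quantification by TMTpro 16plex LC-MS/MS with equalised channel sums, K562 cells at 2×10^6 cells/mL were treated with 10 μM compound for 30 min, heated in aliquots for 3 min across 48°C-58°C, pooled, extracted in PBS with 0.5% NP-40 at 4°C, and centrifuged at 21,000xg for 90 min to give the soluble supernatant.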

Protein sequences, listed by entry. Tags and fused reporters are not part of them. Lines headed by an entry give the natural chain unless they say otherwise; changes in a name come on top.
UniProt Q9NZN5: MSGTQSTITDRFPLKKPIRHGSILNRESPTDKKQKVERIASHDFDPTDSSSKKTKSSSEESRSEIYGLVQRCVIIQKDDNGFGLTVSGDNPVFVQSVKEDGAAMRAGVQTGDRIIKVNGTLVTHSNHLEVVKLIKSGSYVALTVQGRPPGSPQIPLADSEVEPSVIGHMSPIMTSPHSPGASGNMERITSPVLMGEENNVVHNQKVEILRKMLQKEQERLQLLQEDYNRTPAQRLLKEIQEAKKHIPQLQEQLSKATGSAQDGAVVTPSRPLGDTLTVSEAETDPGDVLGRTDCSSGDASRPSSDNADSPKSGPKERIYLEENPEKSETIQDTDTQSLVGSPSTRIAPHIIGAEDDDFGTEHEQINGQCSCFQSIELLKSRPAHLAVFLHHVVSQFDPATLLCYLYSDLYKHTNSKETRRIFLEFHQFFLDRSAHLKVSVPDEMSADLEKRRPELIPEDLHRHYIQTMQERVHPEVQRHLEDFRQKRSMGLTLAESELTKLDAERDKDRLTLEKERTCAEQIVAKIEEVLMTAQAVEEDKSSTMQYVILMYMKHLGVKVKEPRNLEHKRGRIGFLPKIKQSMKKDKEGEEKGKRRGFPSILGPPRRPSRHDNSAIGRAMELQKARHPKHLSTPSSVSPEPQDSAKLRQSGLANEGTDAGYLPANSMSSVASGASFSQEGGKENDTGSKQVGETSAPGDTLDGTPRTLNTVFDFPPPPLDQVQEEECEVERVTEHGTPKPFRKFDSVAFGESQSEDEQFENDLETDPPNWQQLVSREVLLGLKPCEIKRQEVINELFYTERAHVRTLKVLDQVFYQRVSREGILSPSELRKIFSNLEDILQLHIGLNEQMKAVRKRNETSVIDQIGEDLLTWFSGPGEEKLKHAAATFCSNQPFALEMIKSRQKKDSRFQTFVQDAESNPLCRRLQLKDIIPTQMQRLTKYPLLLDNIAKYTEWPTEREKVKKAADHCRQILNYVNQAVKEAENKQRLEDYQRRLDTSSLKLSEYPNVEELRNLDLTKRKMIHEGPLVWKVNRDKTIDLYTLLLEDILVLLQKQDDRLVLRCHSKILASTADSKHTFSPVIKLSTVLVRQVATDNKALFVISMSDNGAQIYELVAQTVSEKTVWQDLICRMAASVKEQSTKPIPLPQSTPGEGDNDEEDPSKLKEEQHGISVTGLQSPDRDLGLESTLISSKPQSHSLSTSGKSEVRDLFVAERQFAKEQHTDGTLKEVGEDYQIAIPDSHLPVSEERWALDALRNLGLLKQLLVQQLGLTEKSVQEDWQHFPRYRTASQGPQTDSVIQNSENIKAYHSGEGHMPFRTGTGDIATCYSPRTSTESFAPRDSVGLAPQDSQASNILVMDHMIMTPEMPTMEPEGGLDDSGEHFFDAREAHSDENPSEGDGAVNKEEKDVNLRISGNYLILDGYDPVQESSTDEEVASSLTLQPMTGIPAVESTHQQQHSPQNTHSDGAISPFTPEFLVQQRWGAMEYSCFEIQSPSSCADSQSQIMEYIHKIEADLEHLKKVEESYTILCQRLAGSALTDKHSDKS
UniProt Q01484: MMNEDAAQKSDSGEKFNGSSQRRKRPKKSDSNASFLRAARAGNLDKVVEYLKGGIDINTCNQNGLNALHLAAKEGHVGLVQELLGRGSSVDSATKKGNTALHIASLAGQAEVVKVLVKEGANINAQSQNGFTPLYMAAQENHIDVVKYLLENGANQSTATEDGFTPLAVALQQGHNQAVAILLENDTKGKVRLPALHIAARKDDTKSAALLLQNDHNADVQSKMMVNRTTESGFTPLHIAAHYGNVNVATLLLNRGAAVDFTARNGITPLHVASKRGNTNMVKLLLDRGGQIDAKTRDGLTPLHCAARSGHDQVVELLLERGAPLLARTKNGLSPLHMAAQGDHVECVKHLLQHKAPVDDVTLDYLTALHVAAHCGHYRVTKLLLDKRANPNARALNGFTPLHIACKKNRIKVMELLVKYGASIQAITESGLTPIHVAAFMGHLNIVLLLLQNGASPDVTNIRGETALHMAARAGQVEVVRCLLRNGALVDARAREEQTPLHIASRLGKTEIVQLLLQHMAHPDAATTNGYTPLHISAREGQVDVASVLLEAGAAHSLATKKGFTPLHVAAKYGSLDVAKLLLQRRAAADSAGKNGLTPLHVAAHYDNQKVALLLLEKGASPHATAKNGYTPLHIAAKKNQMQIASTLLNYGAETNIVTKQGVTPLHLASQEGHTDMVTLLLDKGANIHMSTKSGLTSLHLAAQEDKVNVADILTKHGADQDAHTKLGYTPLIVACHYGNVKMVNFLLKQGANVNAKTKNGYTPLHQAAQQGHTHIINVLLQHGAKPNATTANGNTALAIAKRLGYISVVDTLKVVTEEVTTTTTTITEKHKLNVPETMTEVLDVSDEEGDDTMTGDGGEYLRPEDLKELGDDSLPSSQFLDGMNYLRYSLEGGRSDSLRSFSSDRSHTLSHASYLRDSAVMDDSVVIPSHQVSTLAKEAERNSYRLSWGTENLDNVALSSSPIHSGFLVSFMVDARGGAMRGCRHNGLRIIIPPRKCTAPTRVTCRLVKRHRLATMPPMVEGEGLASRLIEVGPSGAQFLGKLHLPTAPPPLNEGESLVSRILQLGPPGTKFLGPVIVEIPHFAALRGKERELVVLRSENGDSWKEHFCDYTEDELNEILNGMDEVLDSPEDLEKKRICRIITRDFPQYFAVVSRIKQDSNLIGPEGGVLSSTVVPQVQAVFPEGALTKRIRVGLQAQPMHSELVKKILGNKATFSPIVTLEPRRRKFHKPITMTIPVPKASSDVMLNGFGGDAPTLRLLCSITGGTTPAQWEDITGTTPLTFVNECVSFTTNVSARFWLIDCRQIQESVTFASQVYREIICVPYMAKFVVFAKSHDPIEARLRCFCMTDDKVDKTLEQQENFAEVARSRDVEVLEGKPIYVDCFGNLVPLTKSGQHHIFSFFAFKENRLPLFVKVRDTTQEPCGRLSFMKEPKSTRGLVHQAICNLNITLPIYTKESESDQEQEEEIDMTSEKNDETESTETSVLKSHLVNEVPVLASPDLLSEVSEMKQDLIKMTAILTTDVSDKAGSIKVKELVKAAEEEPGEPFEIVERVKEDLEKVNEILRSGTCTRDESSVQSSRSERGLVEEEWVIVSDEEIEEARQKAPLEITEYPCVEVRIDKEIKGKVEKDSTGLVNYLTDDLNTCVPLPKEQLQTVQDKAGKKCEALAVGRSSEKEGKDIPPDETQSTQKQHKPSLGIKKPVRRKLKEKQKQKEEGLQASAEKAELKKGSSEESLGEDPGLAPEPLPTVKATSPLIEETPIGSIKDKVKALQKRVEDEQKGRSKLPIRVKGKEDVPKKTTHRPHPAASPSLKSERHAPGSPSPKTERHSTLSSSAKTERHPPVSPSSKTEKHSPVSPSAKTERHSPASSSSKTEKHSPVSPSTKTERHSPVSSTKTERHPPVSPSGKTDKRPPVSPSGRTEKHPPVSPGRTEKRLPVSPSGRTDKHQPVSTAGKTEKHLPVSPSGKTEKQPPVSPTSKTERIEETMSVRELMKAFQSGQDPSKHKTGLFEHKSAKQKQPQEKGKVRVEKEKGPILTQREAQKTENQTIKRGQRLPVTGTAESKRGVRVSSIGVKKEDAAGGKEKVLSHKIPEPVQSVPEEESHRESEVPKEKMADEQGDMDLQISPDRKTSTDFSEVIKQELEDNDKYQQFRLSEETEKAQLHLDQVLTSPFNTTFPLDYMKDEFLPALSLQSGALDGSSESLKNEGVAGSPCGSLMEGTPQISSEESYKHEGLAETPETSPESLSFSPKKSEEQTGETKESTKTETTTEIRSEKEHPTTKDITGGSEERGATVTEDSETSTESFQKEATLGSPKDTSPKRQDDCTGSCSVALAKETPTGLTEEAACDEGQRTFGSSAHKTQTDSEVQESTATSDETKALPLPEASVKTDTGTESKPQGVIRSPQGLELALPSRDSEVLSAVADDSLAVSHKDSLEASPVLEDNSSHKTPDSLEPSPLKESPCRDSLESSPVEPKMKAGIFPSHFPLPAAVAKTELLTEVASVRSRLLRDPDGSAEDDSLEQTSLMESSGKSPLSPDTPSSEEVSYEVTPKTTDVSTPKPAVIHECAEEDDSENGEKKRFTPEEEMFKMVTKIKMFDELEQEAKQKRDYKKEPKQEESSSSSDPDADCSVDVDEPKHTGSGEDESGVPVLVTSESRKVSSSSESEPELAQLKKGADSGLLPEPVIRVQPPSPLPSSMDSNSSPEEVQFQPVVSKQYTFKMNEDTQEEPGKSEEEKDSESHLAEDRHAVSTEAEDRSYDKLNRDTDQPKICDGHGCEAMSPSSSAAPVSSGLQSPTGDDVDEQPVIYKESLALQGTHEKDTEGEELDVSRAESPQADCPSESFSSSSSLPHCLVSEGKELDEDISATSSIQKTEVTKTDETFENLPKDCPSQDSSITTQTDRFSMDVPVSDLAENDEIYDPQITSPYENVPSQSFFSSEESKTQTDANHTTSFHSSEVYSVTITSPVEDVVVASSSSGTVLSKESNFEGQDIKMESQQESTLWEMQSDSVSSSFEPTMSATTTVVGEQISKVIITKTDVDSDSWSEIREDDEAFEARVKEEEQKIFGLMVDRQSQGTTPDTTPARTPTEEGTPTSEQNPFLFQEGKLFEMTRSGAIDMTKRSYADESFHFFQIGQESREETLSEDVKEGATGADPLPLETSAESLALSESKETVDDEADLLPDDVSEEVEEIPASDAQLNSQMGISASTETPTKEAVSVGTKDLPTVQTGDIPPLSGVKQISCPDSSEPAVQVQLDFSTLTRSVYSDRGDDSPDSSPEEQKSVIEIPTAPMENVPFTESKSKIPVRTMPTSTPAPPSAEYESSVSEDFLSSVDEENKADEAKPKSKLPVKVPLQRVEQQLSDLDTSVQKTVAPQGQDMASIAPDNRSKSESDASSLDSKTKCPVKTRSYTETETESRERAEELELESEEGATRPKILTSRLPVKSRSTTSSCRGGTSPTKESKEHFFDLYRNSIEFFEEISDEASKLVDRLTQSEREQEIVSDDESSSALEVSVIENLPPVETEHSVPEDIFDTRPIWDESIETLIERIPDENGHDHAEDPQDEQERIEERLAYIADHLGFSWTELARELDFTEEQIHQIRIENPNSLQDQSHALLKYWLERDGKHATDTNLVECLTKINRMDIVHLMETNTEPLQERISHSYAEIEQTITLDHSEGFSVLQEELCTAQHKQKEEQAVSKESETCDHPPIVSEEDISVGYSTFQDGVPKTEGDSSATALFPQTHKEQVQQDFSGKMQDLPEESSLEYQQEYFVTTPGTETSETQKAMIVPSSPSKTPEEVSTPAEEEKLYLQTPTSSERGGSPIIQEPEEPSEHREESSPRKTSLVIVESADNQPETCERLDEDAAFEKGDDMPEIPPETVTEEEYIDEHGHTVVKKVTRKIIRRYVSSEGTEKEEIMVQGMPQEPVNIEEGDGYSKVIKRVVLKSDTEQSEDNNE
UniProt Q07960: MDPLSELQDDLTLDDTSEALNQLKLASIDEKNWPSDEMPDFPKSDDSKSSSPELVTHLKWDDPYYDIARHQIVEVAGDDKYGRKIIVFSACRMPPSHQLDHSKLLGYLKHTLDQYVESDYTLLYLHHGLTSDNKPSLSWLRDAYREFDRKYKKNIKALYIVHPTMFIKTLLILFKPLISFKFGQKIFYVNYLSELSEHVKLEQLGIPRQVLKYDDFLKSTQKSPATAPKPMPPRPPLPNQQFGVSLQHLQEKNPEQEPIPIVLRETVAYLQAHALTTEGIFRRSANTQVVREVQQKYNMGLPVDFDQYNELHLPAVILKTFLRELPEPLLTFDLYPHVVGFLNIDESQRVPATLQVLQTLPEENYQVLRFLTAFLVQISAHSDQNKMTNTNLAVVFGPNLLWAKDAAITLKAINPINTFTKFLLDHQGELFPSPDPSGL
UniProt P53367: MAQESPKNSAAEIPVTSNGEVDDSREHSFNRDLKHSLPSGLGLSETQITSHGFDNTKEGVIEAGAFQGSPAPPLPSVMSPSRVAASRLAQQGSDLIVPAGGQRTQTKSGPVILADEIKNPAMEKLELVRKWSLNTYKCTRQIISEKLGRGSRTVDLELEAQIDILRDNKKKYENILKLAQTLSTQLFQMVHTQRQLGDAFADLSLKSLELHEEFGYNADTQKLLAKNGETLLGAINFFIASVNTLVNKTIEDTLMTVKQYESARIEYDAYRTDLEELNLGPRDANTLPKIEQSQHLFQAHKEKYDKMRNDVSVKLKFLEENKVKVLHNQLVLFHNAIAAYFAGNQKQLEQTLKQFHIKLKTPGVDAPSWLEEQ
UniProt P18085: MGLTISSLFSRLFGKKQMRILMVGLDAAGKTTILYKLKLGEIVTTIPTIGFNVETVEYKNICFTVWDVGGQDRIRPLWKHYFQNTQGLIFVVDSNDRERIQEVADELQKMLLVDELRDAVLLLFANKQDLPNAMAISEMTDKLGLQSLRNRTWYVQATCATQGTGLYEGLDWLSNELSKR

[2] = compound: C[C@@H](Oc1cc(-c2cnn(C3CCNCC3)c2)cnc1N)c1c(Cl)ccc(F)c1Cl [crizotinib]
How it was run: as §1

[3] = compound: C[C@@H]1COCCN1C2=NC(=NC(=C2)C3(CC3)S(=O)(=O)C)C4=C5C=CNC5=CC=C4
How it was run: as §1

[4] = compound: C[C@H](Nc1ncnc2nc[nH]c12)c1cc2cccc(Cl)c2c(=O)n1-c1ccccc1 [duvelisib]
How it was run: as §1

[5] = compound: Cc1cc(Nc2cc(N3CCN(C)CC3)nc(Sc3ccc(NC(=O)C4CC4)cc3)n2)n[nH]1 [tozasertib]
How it was run: as §1

[6] = compound: Cc1cc(SCc2sc(-c3ccc(C(F)(F)F)cc3)nc2C)ccc1OCC(=O)O
How it was run: as §1

[7] = compound: Cc1ccc(-n2nc(C(C)(C)C)cc2NC(=O)Nc2ccc(OCCN3CCOCC3)c3ccccc23)cc1 [doramapimod]
How it was run: as §1

[8] = compound: Cc1ccc(C(=O)N(CCCN)[C@@H](c2nc3cc(Cl)ccc3c(=O)n2Cc2ccccc2)C(C)C)cc1 [ispinesib]
How it was run: as §1

[9] = compound: C[C@H](C1=CC=C(C=C1)C(=O)NC2=C3C=CNC3=NC=C2)N
How it was run: as §1

[10] = compound: Cc1cc(Nc2cc(CN3CCOCC3)c3nc(C)c(Cc4ccc(Cl)cc4F)n3n2)n[nH]1 [gandotinib]
How it was run: as §1

| Target | log2 fold change [1] | log2 fold change [2] | log2 fold change [3] | log2 fold change [4] | log2 fold change [5] | log2 fold change [6] | log2 fold change [7] | log2 fold change [8] | log2 fold change [9] | log2 fold change [10] |
| --- | --- | --- | --- | --- | --- | --- | --- | --- | --- | --- |
| ARHGEF12 (UniProt Q9NZN5) | inactive: 0.174 | inactive: -0.134 | inactive: -0.111 | inactive: -0.09 | inactive: 0.121 | inactive: 0.008 | inactive: 0.026 | inactive: -0.094 | – | – |
| ANK2 (UniProt Q01484) | inactive: 0.066 | inactive: 0.062 | – | – | – | inactive: 0.089 | inactive: 0.055 | inactive: -0.188 | inactive: -0.005 | inactive: -0.092 |
| APAF1 (UniProt O14727) | inactive: -0.045 | inactive: 0.045 | inactive: 0.115 | – | – | inactive: 0.119 | inactive: 0.006 | inactive: -0.181 | inactive: -0.061 | inactive: 0.047 |
| AP4B1 (UniProt Q9Y6B7) | inactive: -0.228 | inactive: -0.067 | – | inactive: 0.033 | inactive: 0.151 | inactive: 0.113 | inactive: -0.053 | – | inactive: -0.046 | inactive: 0.134 |
| ANP32E (UniProt Q9BTT0) | inactive: -0.021 | inactive: 0.055 | inactive: 0.12 | – | – | inactive: 0.026 | inactive: -0.014 | inactive: 0.002 | inactive: -0.16 | inactive: -0.082 |
| ANLN (UniProt Q9NQW6) | inactive: 0.125 | inactive: -0.017 | inactive: 0.077 | inactive: 0.061 | – | inactive: -0.015 | inactive: -0.009 | inactive: 0.008 | – | inactive: -0.054 |
| ARHGAP1 (UniProt Q07960) | inactive: 0.011 | inactive: 0.154 | inactive: 0.038 | – | – | inactive: 0 | inactive: -0.039 | active: 0.235 | inactive: -0.003 | inactive: 0.011 |
| APH1A (UniProt Q96BI3) | inactive: 0.048 | inactive: -0.151 | – | – | – | inactive: -0.036 | inactive: 0.073 | – | inactive: 0.021 | inactive: -0.075 |
| ANGPTL3 (UniProt Q9Y5C1) | inactive: 0.051 | inactive: 0.201 | inactive: 0.029 | inactive: 0.038 | inactive: -0.176 | inactive: -0.076 | inactive: 0.048 | inactive: 0.187 | inactive: 0.099 | – |
| APOH (UniProt P02749) | inactive: -0.22 | inactive: -0.179 | – | – | – | inactive: 0.458 | inactive: -0.108 | inactive: -0.595 | inactive: -0.071 | inactive: -0.747 |
| AP2A1 (UniProt O95782) | inactive: -0.011 | inactive: -0.127 | inactive: -0.006 | – | – | inactive: 0.02 | inactive: 0.039 | inactive: 0.081 | active: -0.237 | inactive: 0.01 |
| ARFIP1 isoform 2 (UniProt P53367) | inactive: -0.03 | inactive: -0.266 | inactive: 0.047 | – | – | inactive: 0.081 | inactive: 0.087 | – | – | inactive: -0.112 |
| ARFGAP2 (UniProt Q8N6H7) | inactive: -0.04 | inactive: 0.042 | inactive: 0.062 | – | – | inactive: 0.066 | inactive: -0.009 | inactive: 0.039 | inactive: 0.007 | inactive: -0.101 |
| AP2M1 (UniProt Q96CW1) | inactive: 0.018 | inactive: -0.066 | inactive: -0.04 | – | – | inactive: -0.007 | inactive: 0.029 | inactive: 0.044 | inactive: -0.193 | inactive: -0.002 |
| ANKZF1 (UniProt Q9H8Y5) | inactive: 0.031 | inactive: -0.037 | inactive: -0.135 | – | – | inactive: -0.068 | inactive: -0.059 | inactive: -0.349 | inactive: 0.174 | inactive: 0.007 |
| ARAF (UniProt P10398) | inactive: 0.012 | inactive: -0.093 | inactive: 0.059 | – | – | inactive: 0.081 | inactive: -0.035 | inactive: -0.051 | inactive: 0.112 | inactive: 0.039 |
| APOB (UniProt P04114) | inactive: 0.066 | inactive: -0.443 | inactive: 0.083 | – | – | inactive: 0.007 | inactive: -0.288 | active: -0.55 | inactive: -0.203 | inactive: -0.198 |

Just log2 fold change [5] and log2 fold change [10] (2 entries from above):
Target	log2 fold change [5]	log2 fold change [10]
ARFGAP2 (UniProt Q8N6H7)	–	inactive: -0.101
AP2M1 (UniProt Q96CW1)	–	inactive: -0.002

(next part)

| Target | log2 fold change [1] | log2 fold change [2] | log2 fold change [3] | log2 fold change [4] | log2 fold change [5] | log2 fold change [6] | log2 fold change [7] | log2 fold change [8] | log2 fold change [9] | log2 fold change [10] |
| --- | --- | --- | --- | --- | --- | --- | --- | --- | --- | --- |
| ANPEP (UniProt P15144) | inactive: 0.047 | inactive: 0.151 | – | inactive: 0.004 | inactive: -0.115 | inactive: -0.007 | inactive: 0.117 | inactive: 0.091 | inactive: -0.103 | inactive: -0.095 |
| ANKRD16 (UniProt Q6P6B7) | inactive: 0.19 | – | inactive: -0.048 | – | – | – | – | – | – | – |
| ARHGAP6 (UniProt O43182) | inactive: 0.002 | inactive: -0.002 | inactive: -0.071 | inactive: -0.008 | inactive: 0.052 | inactive: 0.049 | inactive: 0.082 | inactive: -0.293 | – | – |
| APOBEC3G (UniProt Q9HC16) | inactive: -0.065 | inactive: 0.059 | inactive: -0.165 | – | – | inactive: 0.102 | inactive: 0.023 | inactive: -0.01 | – | – |
| ANKS1A (UniProt Q92625) | inactive: 0.138 | inactive: -0.168 | inactive: 0.11 | – | inactive: 0.092 | – | inactive: 0.416 | inactive: -0.406 | inactive: 0.306 | – |
| ANKRD29 (UniProt Q8N6D5) | inactive: 0.125 | inactive: 0.019 | inactive: 0.042 | – | – | inactive: 0.017 | inactive: 0.097 | inactive: -0.055 | inactive: -0.043 | inactive: 0.185 |
| ARFGAP1 (UniProt Q8N6T3) | inactive: 0.009 | inactive: 0.094 | inactive: 0.048 | – | – | inactive: 0.047 | inactive: -0.13 | inactive: 0.008 | inactive: -0.016 | inactive: -0.038 |
| ARFGEF1 (UniProt Q9Y6D6) | inactive: 0.03 | inactive: -0.135 | inactive: 0.022 | – | – | inactive: 0.004 | inactive: 0.067 | inactive: -0.024 | inactive: 0.052 | inactive: -0.014 |
| AP2M1 (UniProt C9JTK4) | inactive: 0.105 | inactive: 0.048 | inactive: 0.158 | – | – | inactive: -0.03 | inactive: 0.032 | – | inactive: 0.08 | – |
| ARGLU1 (UniProt Q9NWB6) | inactive: -0.038 | inactive: -0.008 | inactive: -0.039 | – | – | inactive: -0.027 | inactive: 0.047 | inactive: 0.242 | inactive: -0.344 | inactive: 0.212 |
| AP2B1 isoform 2 (UniProt P63010) | inactive: 0.022 | inactive: -0.029 | inactive: -0.005 | – | – | inactive: 0.007 | inactive: -0.006 | inactive: 0.014 | inactive: -0.161 | inactive: 0.016 |
| ARFRP1 (UniProt Q13795) | inactive: -0.024 | inactive: -0.004 | inactive: 0.091 | – | – | inactive: -0.069 | inactive: 0.003 | inactive: 0.027 | inactive: -0.027 | inactive: -0.159 |
| APPL1 (UniProt Q9UKG1) | inactive: -0.019 | inactive: -0.015 | inactive: -0.078 | – | – | inactive: -0.003 | inactive: 0.032 | inactive: -0.098 | inactive: 0.034 | inactive: 0.123 |
| ARF4 (UniProt P18085) | inactive: 0.057 | inactive: 0.081 | inactive: 0.122 | – | – | inactive: 0.017 | inactive: -0.034 | active: 0.254 | inactive: -0.018 | inactive: -0.074 |
| ARHGAP22 isoform 2 (UniProt Q7Z5H3) | inactive: 0.1 | – | – | – | inactive: -0.291 | – | – | inactive: 0.035 | – | inactive: 0.431 |
| ANXA2 (UniProt H0YMT9) | – | inactive: 0.084 | inactive: 0.121 | inactive: 0.43 | – | inactive: -0.13 | inactive: -0.011 | – | – | – |
| ANGEL1 (UniProt Q9UNK9) | – | inactive: -0.058 | – | – | – | – | inactive: -0.028 | inactive: 0.27 | – | – |

— the supplement of paper PMC10849652
